Data reported in publication PMC8215223.
Results are given in words; binding and its absence hold for the method and conditions named. Binding seen in cells or lysates may run through a third protein. For some of these results: Binding calls can cover weak binding; strength is not graded here.

How the values were obtained:
[1] = biological target: microtubules assembled from purified tubulin; test: condition: only extracts of cells treated with 100 ng/mL nocodazole for 16 hr; co-sedimentation; as a5, extracts of HeLa cells treated with 100 ng/mL nocodazole for 16 hr only; only the target purified
[2] = biological target: microtubules assembled from purified tubulin; test: co-sedimentation; microtubule-associated protein spin-down kit; 10 ug Taxol-stabilized microtubules with 30-60 ug cytosolic extract of HeLa cells, 50 uL, 20 min at RT; pelleted at 100,000 x g through a 40% glycerol cushion; cells non-treated, nocodazole-treated or released from a double thymidine block; only the target purified
[3] = biological target: microtubules assembled from purified tubulin; test: co-sedimentation; as a5, extracts of HeLa cells treated with 100 ng/mL nocodazole for 16 hr only; only the target purified

Row | Binder | binding [1] | binding [2] | binding [3]
1 | HOOK3 (endogenous) (protein, UniProt Q86VS8 1-718) MFSVESLERAELCESLLTWIQTFNVDAPCQTVEDLTNGVVMAQVLQKIDPAYFDENWLNRIKTEVGDNWRLKISNLKKILKGILDYNHEILGQQINDFTLPDVNLIGEHSDAAELGRMLQLILGCAVNCEQKQEYIQAIMMMEESVQHVVMTAIQELMSKESPVSAGNDAYVDLDRQLKKTTEELNEALSAKEEIAQRCHELDMQVAALQEEKSSLLAENQVLMERLNQSDSIEDPNSPAGRRHLQLQTQLEQLQEETFRLEAAKDDYRIRCEELEKEISELRQQNDELTTLADEAQSLKDEIDVLRHSSDKVSKLEGQVESYKKKLEDLGDLRRQVKLLEEKNTMYMQNTVSLEEELRKANAARSQLETYKRQVVELQNRLSEESKKADKLDFEYKRLKEKVDSLQKEKDRLRTERDSLKETIEELRCVQAQEGQLTTQGLMPLGSQESSDSLAAEIVTPEIREKLIRLQHENKMLKLNQEGSDNEKIALLQSLLDDANLRKNELETENRLVNQRLLEVQSQVEELQKSLQDQGSKAEDSVLLKKKLEEHLEKLHEANNELQKKRAIIEDLEPRFNNSSLKIEELQEALRKKEEEMKQMEERYKKYLEKAKSVIRTLDPKQNQGAAPEIQALKNQLQERDRLFHSLEKEYEKTKSQREMEEKYIVSAWYNMGMTLHKKAAEDRLASTGSGQSFLARQRQATSSRRSYPGHVQPATAR | no binding | binds | binds weakly
2 | CLASP2 (endogenous) (protein, UniProt O75122 1-1294) MAMGDDKSFDDEESVDGNRPSSAASAFKVPAPKTSGNPANSARKPGSAGGPKVGGASKEGGAGAVDEDDFIKAFTDVPSIQIYSSRELEETLNKIREILSDDKHDWDQRANALKKIRSLLVAGAAQYDCFFQHLRLLDGALKLSAKDLRSQVVREACITVAHLSTVLGNKFDHGAEAIVPTLFNLVPNSAKVMATSGCAAIRFIIRHTHVPRLIPLITSNCTSKSVPVRRRSFEFLDLLLQEWQTHSLERHAAVLVETIKKGIHDADAEARVEARKTYMGLRNHFPGEAETLYNSLEPSYQKSLQTYLKSSGSVASLPQSDRSSSSSQESLNRPFSSKWSTANPSTVAGRVSAGSSKASSLPGSLQRSRSDIDVNAAAGAKAHHAAGQSVRSGRLGAGALNAGSYASLEDTSDKLDGTASEDGRVRAKLSAPLAGMGNAKADSRGRSRTKMVSQSQPGSRSGSPGRVLTTTALSTVSSGVQRVLVNSASAQKRSKIPRSQGCSREASPSRLSVARSSRIPRPSVSQGCSREASRESSRDTSPVRSFQPLASRHHSRSTGALYAPEVYGASGPGYGISQSSRLSSSVSAMRVLNTGSDVEEAVADALKKPARRRYESYGMHSDDDANSDASSACSERSYSSRNGSIPTYMRQTEDVAEVLNRCASSNWSERKEGLLGLQNLLKNQRTLSRVELKRLCEIFTRMFADPHGKRVFSMFLETLVDFIQVHKDDLQDWLFVLLTQLLKKMGADLLGSVQAKVQKALDVTRESFPNDLQFNILMRFTVDQTQTPSLKVKVAILKYIETLAKQMDPGDFINSSETRLAVSRVITWTTEPKSSDVRKAAQSVLISLFELNTPEFTMLLGALPKTFQDGATKLLHNHLRNTGNGTQSSMGSPLTRPTPRSPANWSSPLTSPTNTSQNTLSPSAFDYDTENMNSEDIYSSLRGVTEAIQNFSFRSQEDMNEPLKRDSKKDDGDSMCGGPGMSDPRAGGDATDSSQTALDNKASLLHSMPTHSSPRSRDYNPYNYSDSISPFNKSALKEAMFDDDADQFPDDLSLDHSDLVAELLKELSNHNERVEERKIALYELMKLTQEESFSVWDEHFKTILLLLLETLGDKEPTIRALALKVLREILRHQPARFKNYAELTVMKTLEAHKDPHKEVVRSAEEAASVLATSISPEQCIKVLCPIIQTADYPINLAAIKMQTKVIERVSKETLNLLLPEIMPGLIQGYDNSESSVRKACVFCLVAVHAVIGDELKPHLSQLTGSKMKLLNLYIKRAQTGSGGADPTTDVSGQS | – | binds | –
